From publication PMC7670456
Results are given in words; binding and its absence hold for the method and conditions named. Binding seen in cells or lysates may run through a third protein. Some binding calls cover weakened binding; strength is not graded here. Each block holds one substance with its values, some of them ahead of it.

Amino acid sequences for entries named in this document (tags omitted). A change or cut given only in a name is not applied to a line headed by its entry.
UniProt P49841: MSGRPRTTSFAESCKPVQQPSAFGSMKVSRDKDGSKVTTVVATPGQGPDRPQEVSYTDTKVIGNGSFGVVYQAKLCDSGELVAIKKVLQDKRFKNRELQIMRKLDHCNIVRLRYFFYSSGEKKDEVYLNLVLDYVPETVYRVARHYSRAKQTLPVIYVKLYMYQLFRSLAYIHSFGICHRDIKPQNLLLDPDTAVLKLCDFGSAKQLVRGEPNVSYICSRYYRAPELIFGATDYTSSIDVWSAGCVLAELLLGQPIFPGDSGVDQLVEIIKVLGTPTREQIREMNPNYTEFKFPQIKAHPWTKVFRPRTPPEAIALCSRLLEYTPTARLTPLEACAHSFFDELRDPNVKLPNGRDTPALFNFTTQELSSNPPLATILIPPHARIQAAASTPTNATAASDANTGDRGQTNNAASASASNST
UniProt Q13485: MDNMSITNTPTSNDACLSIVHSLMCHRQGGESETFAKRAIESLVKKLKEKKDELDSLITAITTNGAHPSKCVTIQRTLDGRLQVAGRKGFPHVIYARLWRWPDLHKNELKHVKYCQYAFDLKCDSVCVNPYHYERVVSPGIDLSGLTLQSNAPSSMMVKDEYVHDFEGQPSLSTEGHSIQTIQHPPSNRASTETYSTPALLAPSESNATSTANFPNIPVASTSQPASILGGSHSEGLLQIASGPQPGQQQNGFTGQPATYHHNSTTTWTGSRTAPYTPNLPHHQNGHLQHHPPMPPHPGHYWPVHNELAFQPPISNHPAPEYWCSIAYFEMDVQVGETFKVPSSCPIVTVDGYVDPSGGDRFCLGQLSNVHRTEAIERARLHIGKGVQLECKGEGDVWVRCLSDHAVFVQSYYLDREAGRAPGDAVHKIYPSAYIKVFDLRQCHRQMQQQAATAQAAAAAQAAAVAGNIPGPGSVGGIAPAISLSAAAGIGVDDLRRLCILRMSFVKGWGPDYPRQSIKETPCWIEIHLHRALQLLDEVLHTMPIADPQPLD
UniProt Q9Y297: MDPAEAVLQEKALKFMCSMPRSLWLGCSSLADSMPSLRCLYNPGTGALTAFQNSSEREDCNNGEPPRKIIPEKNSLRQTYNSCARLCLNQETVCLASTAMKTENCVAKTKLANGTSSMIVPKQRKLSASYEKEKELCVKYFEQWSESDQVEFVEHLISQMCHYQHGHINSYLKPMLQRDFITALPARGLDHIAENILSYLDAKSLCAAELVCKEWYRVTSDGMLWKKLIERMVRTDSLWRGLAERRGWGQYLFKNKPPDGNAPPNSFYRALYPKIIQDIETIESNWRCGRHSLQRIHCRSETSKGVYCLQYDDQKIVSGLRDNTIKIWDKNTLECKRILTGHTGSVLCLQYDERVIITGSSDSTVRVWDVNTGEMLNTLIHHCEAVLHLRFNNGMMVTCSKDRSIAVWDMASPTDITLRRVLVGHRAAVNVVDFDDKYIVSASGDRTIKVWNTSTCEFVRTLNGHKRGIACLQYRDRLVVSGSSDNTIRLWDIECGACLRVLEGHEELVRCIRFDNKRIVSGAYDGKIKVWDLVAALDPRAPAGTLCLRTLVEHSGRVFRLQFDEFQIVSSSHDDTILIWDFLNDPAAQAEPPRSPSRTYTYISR

Legend:
HA-GSK-3β = HA-GSK-3β (UniProt P49841); experiment: co-IP; HEK293 cells co-transfected 24 h; whole lysates immunoprecipitated with anti-HA, FLAG-SMAD4 detected in the precipitates; with or without pCMV-OGT overexpression
FLAG-SMAD4 T63V [1] = target: FLAG-SMAD4 T63V (UniProt Q13485); experiment: co-IP; HEK293 cells co-transfected 24 h; whole lysates (NET buffer: 150 mM NaCl, 50 mM Tris, 1 mM EDTA, 1% Nonidet P-40, pH 7.4) immunoprecipitated with anti-FLAG overnight at 4 °C, blotted with anti-HA; with or without pCMV-OGT or myc-His-OGA overexpression
FLAG-SMAD4 WT [2] = target: FLAG-SMAD4 WT (UniProt Q13485); experiment: as above
FLAG-SMAD4 WT [3] = target: FLAG-SMAD4 WT (UniProt Q13485); experiment: co-IP; HEK293 cells transfected with FLAG-SMAD4 24 h; immunoprecipitation with anti-FLAG, endogenous GSK-3β detected with anti-GSK-3β; without OGT overexpression
FLAG-SMAD4 WT [4] = target: FLAG-SMAD4 WT (UniProt Q13485); experiment: co-IP; HEK293 cells co-transfected with FLAG-SMAD4 and pCMV-OGT 24 h (OGT overexpressed); immunoprecipitation with anti-FLAG, endogenous GSK-3β detected with anti-GSK-3β
[5] = target: endogenous GSK-3β (A549) (human (endogenous in A549)) (UniProt P49841); experiment: co-IP; A549 cells, siRNA against OGT 48 h, 20 µM MG132 6 h before harvest; immunoprecipitation with anti-GSK-3β, endogenous SMAD4 detected with anti-SMAD4
FLAG-SMAD4 T63V [6] = target: FLAG-SMAD4 T63V (UniProt Q13485); experiment: co-IP; HEK293 cells expressing FLAG-SMAD4 T63V and myc-β-TrCP, 24 h after transfection; precipitates blotted with anti-myc

Substance: FLAG-SMAD4 WT (from UniProt Q13485 1-552)
binding (HA-GSK-3β): binds

Substance: HA-GSK-3β (from UniProt P49841 1-420) (enzyme)
binding (FLAG-SMAD4 T63V [1]): binds | binding (FLAG-SMAD4 WT [2]): binds

Continued, values first:

binding (FLAG-SMAD4 WT [3]): binds | binding (FLAG-SMAD4 WT [4]): binds weakly
Substance: endogenous GSK-3β (HEK293) (from UniProt P49841 1-420) (enzyme)

binding [5]: binds
Substance: endogenous SMAD4 (A549) (from UniProt Q13485 1-552)

binding (FLAG-SMAD4 T63V [6]): binds
Substance: myc-β-TrCP (from UniProt Q9Y297 1-605)
